This is an account of results in ChEMBL document CHEMBL2074017, “Distinct characteristics of organic cation transporters, OCT1 and OCT2, in the basolateral membrane of renal tubules” (Pharm Res, 2001).

Assay [1] deals with T1, Solute carrier family 22 member 1 (Rattus norvegicus, UniProt Q63089).
T1 sequence (Q63089 whole entry): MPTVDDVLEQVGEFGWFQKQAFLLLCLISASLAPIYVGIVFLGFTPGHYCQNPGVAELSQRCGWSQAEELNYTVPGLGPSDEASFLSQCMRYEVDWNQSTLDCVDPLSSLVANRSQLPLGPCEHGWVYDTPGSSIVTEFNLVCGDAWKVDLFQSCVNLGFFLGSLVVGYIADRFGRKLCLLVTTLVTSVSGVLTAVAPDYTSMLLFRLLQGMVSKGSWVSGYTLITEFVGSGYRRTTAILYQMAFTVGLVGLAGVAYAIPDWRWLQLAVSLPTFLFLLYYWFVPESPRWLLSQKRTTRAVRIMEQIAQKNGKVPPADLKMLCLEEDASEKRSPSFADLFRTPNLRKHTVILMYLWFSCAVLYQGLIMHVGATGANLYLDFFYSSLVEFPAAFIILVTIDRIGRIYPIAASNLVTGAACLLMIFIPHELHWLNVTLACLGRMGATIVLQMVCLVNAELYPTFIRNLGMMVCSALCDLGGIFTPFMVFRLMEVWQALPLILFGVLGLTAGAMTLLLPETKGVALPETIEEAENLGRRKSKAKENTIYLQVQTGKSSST
It is filed as functional, cell-based, MDCK.

Assay [2] deals with T2, Solute carrier family 22 member 2 (Rattus norvegicus, UniProt Q9R0W2).
T2 sequence (Q9R0W2 whole entry): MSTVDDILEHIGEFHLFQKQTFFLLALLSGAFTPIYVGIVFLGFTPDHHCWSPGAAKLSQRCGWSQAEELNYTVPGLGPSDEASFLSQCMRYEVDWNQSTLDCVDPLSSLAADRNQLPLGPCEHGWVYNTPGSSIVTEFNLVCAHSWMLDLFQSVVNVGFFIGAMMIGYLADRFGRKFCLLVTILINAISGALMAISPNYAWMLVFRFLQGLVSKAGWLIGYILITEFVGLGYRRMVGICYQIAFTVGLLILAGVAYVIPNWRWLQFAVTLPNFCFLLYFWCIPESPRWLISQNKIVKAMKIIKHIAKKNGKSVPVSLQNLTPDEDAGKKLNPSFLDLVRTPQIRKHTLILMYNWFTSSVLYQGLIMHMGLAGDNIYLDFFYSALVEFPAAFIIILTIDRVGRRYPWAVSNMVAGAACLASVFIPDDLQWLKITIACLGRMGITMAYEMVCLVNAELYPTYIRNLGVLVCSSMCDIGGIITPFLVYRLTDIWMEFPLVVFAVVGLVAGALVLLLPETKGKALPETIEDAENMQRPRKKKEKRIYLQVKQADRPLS
The class given is functional, cell-based, MDCK.

One may read the IC50 as the concentration needed to halve the response being measured. In the case of `CN(C)CCOC(c1ccccc1)c1ccccc1` [DIPHENHYDRAMINE], the IC50 in assay [1] was determined as 24 µM; in assay [2], 32 µM.
